According to patent US9174948B2, “Desferrithiocin polyether analogues” (University of Florida Research Foundation, Inc., priority 2007, dated 2015):
Some entries share one result that the patent states for a list of compounds.

Assay: Chelator tissue distribution in rodents
Assay type: in vivo, rat (male Sprague-Dawley)
Details: rats, sc, 300 μmol/kg, 0.5 h
Procedure: Collection of Tissue Distribution Samples from Rodents: Male Sprague-Dawley rats (250-350 g) were given a single sc injection of the monosodium salts of 6 and 9 prepared as described above at a dose of 300 μmol/kg. At times 0.5, 1, 2, and 4 h after dosing (n=3 rats per time point) the animals were euthanized by exposure to CO2 gas. Blood was obtained via cardiac puncture into vacutainers containing sodium citrate. The blood was centrifuged, and the plasma was separated for analysis. The liver, heart, kidneys, and pancreas were then removed from the animals. […] J. Med. Chem. 2006, 49, 2772-2783]. In the current study, tissues from the (S)-3′-(HO)-DADFT-PE (9) and (S)-5′-(HO)-DADFT-PE (6) treated rats were prepared for HPLC analysis by homogenizing them in 0.5 N HClO4 at a ratio of 1:3 (w/v). Then, as a rinse, CH3OH at a ratio of 1:3 (w/v) was added and the mixture was stored at −20° C. for 30 min. This homogenate was centrifuged. The supernatant was diluted with mobile phase A (95% buffer [25 mM KH2PO4, pH 3.0]/5% CH3CN), vortexed, and filtered with a 0.2 μm membrane. […] The concentrations were calculated from the peak area fitted to calibration curves by nonweighted least-squares linear regression with Rainin Dynamax HPLC Method Manager software (Rainin Instrument Co.).

| heart concentration [nmol/g wet weight] | Structure (SMILES) |
| --- | --- |
| < 90 | COCCOCCOCCOc1ccc(O)c(C2=N[C@@](C)(C(=O)O)CS2)c1 [Compound 6, (S)-4,5-dihydro-2-[2-hydroxy-5-(3,6,9-trioxadecyloxy)phenyl]-4-methyl-4-thiazolecarboxylic acid] |
| < 90 | COCCOCCOCCOc1cccc(C2=N[C@@](C)(C(=O)O)CS2)c1O [Compound 9, (S)-4,5-dihydro-2-[2-hydroxy-3-(3,6,9-trioxadecyloxy)phenyl]-4-methyl-4-thiazolecarboxylic acid] |
